The target of assay [1] is β’2-COP (BiFC fusion) (Arabidopsis thaliana). The assay is described as follows: split reporter.
The target of assay [2] is ε1-COP (BiFC fusion) (Arabidopsis thaliana). The assay is described as follows: split reporter.
For assay [3], the target named is GCS:Venus-N (Arabidopsis thaliana). As to the kind of experiment: split reporter.
For assay [4], the target named is Myc:GCS (Arabidopsis thaliana). As to the kind of experiment: co-IP.

No constants are given. Whether binding was seen depends on the method and setting. In cells and extracts the contact can be indirect. A result given as binding can be weak or reduced; the word gives no strength. For part of these data: Tags and fused reporters may be left off the sequences shown.

B1: α1-COP:Venus-C (protein, UniProt Q94A40 1-1216)
chain: MLTKFETKSNRVKGLSFHPKRPWILASLHSGVIQLWDYRMGTLIDRFDEHEGPVRGVHFHNSQPLFVSGGDDYKIKVWNYKNHRCLFTLLGHLDYIRTVQFHHEYPWIVSASDDQTIRIWNWQSRTCVSVLTGHNHYVMCASFHPKEDLVVSASLDQTVRVWDIGALRKKTVSPADDIMRLTQMNSDLFGGVDAIVKYVLEGHDRGVNWAAFHPTLPLIVSGADDRQVKLWRMNETKAWEVDTLRGHMNNVSSVMFHAKQDIIVSNSEDKSIRVWDATKRTGLQTFRREHDRFWILAVHPEMNLLAAGHDSGMIVFKLERERPAFALSGDSLFYAKDRFLRYYEYSTQRDSQVIPIRRPGTPSLNQSPRTLSYSPTENAVLICSDLDGGSYELYIIPKDSVGRSDVVQDAKRGTGGSAVFIARNRFAVLEKSTSQVLVKNLKNEVVKKSPLPIPTDAIFYAGTGNLLCRSEDKVVIFDLQQRLVLGELQTPFVRYVVWSSDMESVALLSKHTIIIASKKLVLQCTLHETIRVKSGAWDDNGVFIYTTLNHIKYCLPNGDSGIIRTLDVPIYITKVSGNTIFCLDRDGKNKAITINATEYIFKLSLLRKRYDHVMSMIKNSQLCGQAMIAYLQQKGFPEVALHFVEDERIRFNLALESGNISVAVASATQINEKDHWYRLGVEALRQGNSGIVEFAYQQTKNFERLSFLYLITGNLDKLSKLMKIAEVKNNVMGQFHNALYLGDVKERVKILENAGHLPLAYITASVHGLNDIAERLATELGDNVPSLPEGKTPSLLMPPTPIMCGGDWPLLRVMKGIFEGGLESADRGGTVDEEDVEGDWGEELDINVDGMENRDIEDILAAAEAGEEENDEEGGWGLEDLVLPPELDTPKASANARSSVFVTPPQGMPVSQSWSQKSSLAAEQAAAGSFDTAMRLLHRQLGIKNFTPLKSMFLDLFNGSHSYLRAFSSCPVVPLAIERGWSESSSPNVRSPPALVYDFSQLDEKLKSGYKATTTGKFTEALRLFLSILHTIPLVVVETRREVDEVKELIVIVKEYVLGLQMELKRREMKDDPVRQQELAAYFTHCNLQTPHLRLALLSAMGVCYKAKNLATASNFARRLLETSPVDSQAKMARQVVQAAERNMTDETKLNYDFRNPFVVCGSTYVPIYRGQKDVSCPYCTARFVPNQEGNICTVCDLAVIGADASGLLCSPSQVR
With B1, the binding result in assay [1], in assay [2] and in assay [3] was “binds” each time.

B2: GFP:α1-COP^G486D (protein, UniProt Q94A40 1-1216)
chain: MLTKFETKSNRVKGLSFHPKRPWILASLHSGVIQLWDYRMGTLIDRFDEHEGPVRGVHFHNSQPLFVSGGDDYKIKVWNYKNHRCLFTLLGHLDYIRTVQFHHEYPWIVSASDDQTIRIWNWQSRTCVSVLTGHNHYVMCASFHPKEDLVVSASLDQTVRVWDIGALRKKTVSPADDIMRLTQMNSDLFGGVDAIVKYVLEGHDRGVNWAAFHPTLPLIVSGADDRQVKLWRMNETKAWEVDTLRGHMNNVSSVMFHAKQDIIVSNSEDKSIRVWDATKRTGLQTFRREHDRFWILAVHPEMNLLAAGHDSGMIVFKLERERPAFALSGDSLFYAKDRFLRYYEYSTQRDSQVIPIRRPGTPSLNQSPRTLSYSPTENAVLICSDLDGGSYELYIIPKDSVGRSDVVQDAKRGTGGSAVFIARNRFAVLEKSTSQVLVKNLKNEVVKKSPLPIPTDAIFYAGTGNLLCRSEDKVVIFDLQQRLVLDELQTPFVRYVVWSSDMESVALLSKHTIIIASKKLVLQCTLHETIRVKSGAWDDNGVFIYTTLNHIKYCLPNGDSGIIRTLDVPIYITKVSGNTIFCLDRDGKNKAITINATEYIFKLSLLRKRYDHVMSMIKNSQLCGQAMIAYLQQKGFPEVALHFVEDERIRFNLALESGNISVAVASATQINEKDHWYRLGVEALRQGNSGIVEFAYQQTKNFERLSFLYLITGNLDKLSKLMKIAEVKNNVMGQFHNALYLGDVKERVKILENAGHLPLAYITASVHGLNDIAERLATELGDNVPSLPEGKTPSLLMPPTPIMCGGDWPLLRVMKGIFEGGLESADRGGTVDEEDVEGDWGEELDINVDGMENRDIEDILAAAEAGEEENDEEGGWGLEDLVLPPELDTPKASANARSSVFVTPPQGMPVSQSWSQKSSLAAEQAAAGSFDTAMRLLHRQLGIKNFTPLKSMFLDLFNGSHSYLRAFSSCPVVPLAIERGWSESSSPNVRSPPALVYDFSQLDEKLKSGYKATTTGKFTEALRLFLSILHTIPLVVVETRREVDEVKELIVIVKEYVLGLQMELKRREMKDDPVRQQELAAYFTHCNLQTPHLRLALLSAMGVCYKAKNLATASNFARRLLETSPVDSQAKMARQVVQAAERNMTDETKLNYDFRNPFVVCGSTYVPIYRGQKDVSCPYCTARFVPNQEGNICTVCDLAVIGADASGLLCSPSQVR
Regarding B2, the binding entry in assay [4] is given as “no binding”.

B3: GFP:α1-COP (protein, UniProt Q94A40 1-1216)
chain: MLTKFETKSNRVKGLSFHPKRPWILASLHSGVIQLWDYRMGTLIDRFDEHEGPVRGVHFHNSQPLFVSGGDDYKIKVWNYKNHRCLFTLLGHLDYIRTVQFHHEYPWIVSASDDQTIRIWNWQSRTCVSVLTGHNHYVMCASFHPKEDLVVSASLDQTVRVWDIGALRKKTVSPADDIMRLTQMNSDLFGGVDAIVKYVLEGHDRGVNWAAFHPTLPLIVSGADDRQVKLWRMNETKAWEVDTLRGHMNNVSSVMFHAKQDIIVSNSEDKSIRVWDATKRTGLQTFRREHDRFWILAVHPEMNLLAAGHDSGMIVFKLERERPAFALSGDSLFYAKDRFLRYYEYSTQRDSQVIPIRRPGTPSLNQSPRTLSYSPTENAVLICSDLDGGSYELYIIPKDSVGRSDVVQDAKRGTGGSAVFIARNRFAVLEKSTSQVLVKNLKNEVVKKSPLPIPTDAIFYAGTGNLLCRSEDKVVIFDLQQRLVLGELQTPFVRYVVWSSDMESVALLSKHTIIIASKKLVLQCTLHETIRVKSGAWDDNGVFIYTTLNHIKYCLPNGDSGIIRTLDVPIYITKVSGNTIFCLDRDGKNKAITINATEYIFKLSLLRKRYDHVMSMIKNSQLCGQAMIAYLQQKGFPEVALHFVEDERIRFNLALESGNISVAVASATQINEKDHWYRLGVEALRQGNSGIVEFAYQQTKNFERLSFLYLITGNLDKLSKLMKIAEVKNNVMGQFHNALYLGDVKERVKILENAGHLPLAYITASVHGLNDIAERLATELGDNVPSLPEGKTPSLLMPPTPIMCGGDWPLLRVMKGIFEGGLESADRGGTVDEEDVEGDWGEELDINVDGMENRDIEDILAAAEAGEEENDEEGGWGLEDLVLPPELDTPKASANARSSVFVTPPQGMPVSQSWSQKSSLAAEQAAAGSFDTAMRLLHRQLGIKNFTPLKSMFLDLFNGSHSYLRAFSSCPVVPLAIERGWSESSSPNVRSPPALVYDFSQLDEKLKSGYKATTTGKFTEALRLFLSILHTIPLVVVETRREVDEVKELIVIVKEYVLGLQMELKRREMKDDPVRQQELAAYFTHCNLQTPHLRLALLSAMGVCYKAKNLATASNFARRLLETSPVDSQAKMARQVVQAAERNMTDETKLNYDFRNPFVVCGSTYVPIYRGQKDVSCPYCTARFVPNQEGNICTVCDLAVIGADASGLLCSPSQVR
On to B3, for which the binding entry in assay [4] is recorded as “binds”.

B4: α1-COP^G486D:cVenus (protein, UniProt Q94A40 1-1216)
chain: MLTKFETKSNRVKGLSFHPKRPWILASLHSGVIQLWDYRMGTLIDRFDEHEGPVRGVHFHNSQPLFVSGGDDYKIKVWNYKNHRCLFTLLGHLDYIRTVQFHHEYPWIVSASDDQTIRIWNWQSRTCVSVLTGHNHYVMCASFHPKEDLVVSASLDQTVRVWDIGALRKKTVSPADDIMRLTQMNSDLFGGVDAIVKYVLEGHDRGVNWAAFHPTLPLIVSGADDRQVKLWRMNETKAWEVDTLRGHMNNVSSVMFHAKQDIIVSNSEDKSIRVWDATKRTGLQTFRREHDRFWILAVHPEMNLLAAGHDSGMIVFKLERERPAFALSGDSLFYAKDRFLRYYEYSTQRDSQVIPIRRPGTPSLNQSPRTLSYSPTENAVLICSDLDGGSYELYIIPKDSVGRSDVVQDAKRGTGGSAVFIARNRFAVLEKSTSQVLVKNLKNEVVKKSPLPIPTDAIFYAGTGNLLCRSEDKVVIFDLQQRLVLDELQTPFVRYVVWSSDMESVALLSKHTIIIASKKLVLQCTLHETIRVKSGAWDDNGVFIYTTLNHIKYCLPNGDSGIIRTLDVPIYITKVSGNTIFCLDRDGKNKAITINATEYIFKLSLLRKRYDHVMSMIKNSQLCGQAMIAYLQQKGFPEVALHFVEDERIRFNLALESGNISVAVASATQINEKDHWYRLGVEALRQGNSGIVEFAYQQTKNFERLSFLYLITGNLDKLSKLMKIAEVKNNVMGQFHNALYLGDVKERVKILENAGHLPLAYITASVHGLNDIAERLATELGDNVPSLPEGKTPSLLMPPTPIMCGGDWPLLRVMKGIFEGGLESADRGGTVDEEDVEGDWGEELDINVDGMENRDIEDILAAAEAGEEENDEEGGWGLEDLVLPPELDTPKASANARSSVFVTPPQGMPVSQSWSQKSSLAAEQAAAGSFDTAMRLLHRQLGIKNFTPLKSMFLDLFNGSHSYLRAFSSCPVVPLAIERGWSESSSPNVRSPPALVYDFSQLDEKLKSGYKATTTGKFTEALRLFLSILHTIPLVVVETRREVDEVKELIVIVKEYVLGLQMELKRREMKDDPVRQQELAAYFTHCNLQTPHLRLALLSAMGVCYKAKNLATASNFARRLLETSPVDSQAKMARQVVQAAERNMTDETKLNYDFRNPFVVCGSTYVPIYRGQKDVSCPYCTARFVPNQEGNICTVCDLAVIGADASGLLCSPSQVR
In the case of B4, in assay [3], the binding entry is “no binding”.

(Values after publication doi:10.1101/2021.03.22.436362.)
